Results are given in words; binding and its absence hold for the method and conditions named. Some results given as binding are weak or reduced against the parent protein; the word gives no strength.
Target: low-density lipoprotein receptor-related protein 1 (LRP1), full-length, purified from human placenta (human) (UniProt Q07954)
Test: SPR; LRP1 amine-coupled to CM5 chip; 1 uM RAP co-injected with 500 nM S1 subunit; both purified

Chains of the proteins cited; added tags and fusions are not shown. Residues count along the entry.
UniProt Q07954, residues 20-4544: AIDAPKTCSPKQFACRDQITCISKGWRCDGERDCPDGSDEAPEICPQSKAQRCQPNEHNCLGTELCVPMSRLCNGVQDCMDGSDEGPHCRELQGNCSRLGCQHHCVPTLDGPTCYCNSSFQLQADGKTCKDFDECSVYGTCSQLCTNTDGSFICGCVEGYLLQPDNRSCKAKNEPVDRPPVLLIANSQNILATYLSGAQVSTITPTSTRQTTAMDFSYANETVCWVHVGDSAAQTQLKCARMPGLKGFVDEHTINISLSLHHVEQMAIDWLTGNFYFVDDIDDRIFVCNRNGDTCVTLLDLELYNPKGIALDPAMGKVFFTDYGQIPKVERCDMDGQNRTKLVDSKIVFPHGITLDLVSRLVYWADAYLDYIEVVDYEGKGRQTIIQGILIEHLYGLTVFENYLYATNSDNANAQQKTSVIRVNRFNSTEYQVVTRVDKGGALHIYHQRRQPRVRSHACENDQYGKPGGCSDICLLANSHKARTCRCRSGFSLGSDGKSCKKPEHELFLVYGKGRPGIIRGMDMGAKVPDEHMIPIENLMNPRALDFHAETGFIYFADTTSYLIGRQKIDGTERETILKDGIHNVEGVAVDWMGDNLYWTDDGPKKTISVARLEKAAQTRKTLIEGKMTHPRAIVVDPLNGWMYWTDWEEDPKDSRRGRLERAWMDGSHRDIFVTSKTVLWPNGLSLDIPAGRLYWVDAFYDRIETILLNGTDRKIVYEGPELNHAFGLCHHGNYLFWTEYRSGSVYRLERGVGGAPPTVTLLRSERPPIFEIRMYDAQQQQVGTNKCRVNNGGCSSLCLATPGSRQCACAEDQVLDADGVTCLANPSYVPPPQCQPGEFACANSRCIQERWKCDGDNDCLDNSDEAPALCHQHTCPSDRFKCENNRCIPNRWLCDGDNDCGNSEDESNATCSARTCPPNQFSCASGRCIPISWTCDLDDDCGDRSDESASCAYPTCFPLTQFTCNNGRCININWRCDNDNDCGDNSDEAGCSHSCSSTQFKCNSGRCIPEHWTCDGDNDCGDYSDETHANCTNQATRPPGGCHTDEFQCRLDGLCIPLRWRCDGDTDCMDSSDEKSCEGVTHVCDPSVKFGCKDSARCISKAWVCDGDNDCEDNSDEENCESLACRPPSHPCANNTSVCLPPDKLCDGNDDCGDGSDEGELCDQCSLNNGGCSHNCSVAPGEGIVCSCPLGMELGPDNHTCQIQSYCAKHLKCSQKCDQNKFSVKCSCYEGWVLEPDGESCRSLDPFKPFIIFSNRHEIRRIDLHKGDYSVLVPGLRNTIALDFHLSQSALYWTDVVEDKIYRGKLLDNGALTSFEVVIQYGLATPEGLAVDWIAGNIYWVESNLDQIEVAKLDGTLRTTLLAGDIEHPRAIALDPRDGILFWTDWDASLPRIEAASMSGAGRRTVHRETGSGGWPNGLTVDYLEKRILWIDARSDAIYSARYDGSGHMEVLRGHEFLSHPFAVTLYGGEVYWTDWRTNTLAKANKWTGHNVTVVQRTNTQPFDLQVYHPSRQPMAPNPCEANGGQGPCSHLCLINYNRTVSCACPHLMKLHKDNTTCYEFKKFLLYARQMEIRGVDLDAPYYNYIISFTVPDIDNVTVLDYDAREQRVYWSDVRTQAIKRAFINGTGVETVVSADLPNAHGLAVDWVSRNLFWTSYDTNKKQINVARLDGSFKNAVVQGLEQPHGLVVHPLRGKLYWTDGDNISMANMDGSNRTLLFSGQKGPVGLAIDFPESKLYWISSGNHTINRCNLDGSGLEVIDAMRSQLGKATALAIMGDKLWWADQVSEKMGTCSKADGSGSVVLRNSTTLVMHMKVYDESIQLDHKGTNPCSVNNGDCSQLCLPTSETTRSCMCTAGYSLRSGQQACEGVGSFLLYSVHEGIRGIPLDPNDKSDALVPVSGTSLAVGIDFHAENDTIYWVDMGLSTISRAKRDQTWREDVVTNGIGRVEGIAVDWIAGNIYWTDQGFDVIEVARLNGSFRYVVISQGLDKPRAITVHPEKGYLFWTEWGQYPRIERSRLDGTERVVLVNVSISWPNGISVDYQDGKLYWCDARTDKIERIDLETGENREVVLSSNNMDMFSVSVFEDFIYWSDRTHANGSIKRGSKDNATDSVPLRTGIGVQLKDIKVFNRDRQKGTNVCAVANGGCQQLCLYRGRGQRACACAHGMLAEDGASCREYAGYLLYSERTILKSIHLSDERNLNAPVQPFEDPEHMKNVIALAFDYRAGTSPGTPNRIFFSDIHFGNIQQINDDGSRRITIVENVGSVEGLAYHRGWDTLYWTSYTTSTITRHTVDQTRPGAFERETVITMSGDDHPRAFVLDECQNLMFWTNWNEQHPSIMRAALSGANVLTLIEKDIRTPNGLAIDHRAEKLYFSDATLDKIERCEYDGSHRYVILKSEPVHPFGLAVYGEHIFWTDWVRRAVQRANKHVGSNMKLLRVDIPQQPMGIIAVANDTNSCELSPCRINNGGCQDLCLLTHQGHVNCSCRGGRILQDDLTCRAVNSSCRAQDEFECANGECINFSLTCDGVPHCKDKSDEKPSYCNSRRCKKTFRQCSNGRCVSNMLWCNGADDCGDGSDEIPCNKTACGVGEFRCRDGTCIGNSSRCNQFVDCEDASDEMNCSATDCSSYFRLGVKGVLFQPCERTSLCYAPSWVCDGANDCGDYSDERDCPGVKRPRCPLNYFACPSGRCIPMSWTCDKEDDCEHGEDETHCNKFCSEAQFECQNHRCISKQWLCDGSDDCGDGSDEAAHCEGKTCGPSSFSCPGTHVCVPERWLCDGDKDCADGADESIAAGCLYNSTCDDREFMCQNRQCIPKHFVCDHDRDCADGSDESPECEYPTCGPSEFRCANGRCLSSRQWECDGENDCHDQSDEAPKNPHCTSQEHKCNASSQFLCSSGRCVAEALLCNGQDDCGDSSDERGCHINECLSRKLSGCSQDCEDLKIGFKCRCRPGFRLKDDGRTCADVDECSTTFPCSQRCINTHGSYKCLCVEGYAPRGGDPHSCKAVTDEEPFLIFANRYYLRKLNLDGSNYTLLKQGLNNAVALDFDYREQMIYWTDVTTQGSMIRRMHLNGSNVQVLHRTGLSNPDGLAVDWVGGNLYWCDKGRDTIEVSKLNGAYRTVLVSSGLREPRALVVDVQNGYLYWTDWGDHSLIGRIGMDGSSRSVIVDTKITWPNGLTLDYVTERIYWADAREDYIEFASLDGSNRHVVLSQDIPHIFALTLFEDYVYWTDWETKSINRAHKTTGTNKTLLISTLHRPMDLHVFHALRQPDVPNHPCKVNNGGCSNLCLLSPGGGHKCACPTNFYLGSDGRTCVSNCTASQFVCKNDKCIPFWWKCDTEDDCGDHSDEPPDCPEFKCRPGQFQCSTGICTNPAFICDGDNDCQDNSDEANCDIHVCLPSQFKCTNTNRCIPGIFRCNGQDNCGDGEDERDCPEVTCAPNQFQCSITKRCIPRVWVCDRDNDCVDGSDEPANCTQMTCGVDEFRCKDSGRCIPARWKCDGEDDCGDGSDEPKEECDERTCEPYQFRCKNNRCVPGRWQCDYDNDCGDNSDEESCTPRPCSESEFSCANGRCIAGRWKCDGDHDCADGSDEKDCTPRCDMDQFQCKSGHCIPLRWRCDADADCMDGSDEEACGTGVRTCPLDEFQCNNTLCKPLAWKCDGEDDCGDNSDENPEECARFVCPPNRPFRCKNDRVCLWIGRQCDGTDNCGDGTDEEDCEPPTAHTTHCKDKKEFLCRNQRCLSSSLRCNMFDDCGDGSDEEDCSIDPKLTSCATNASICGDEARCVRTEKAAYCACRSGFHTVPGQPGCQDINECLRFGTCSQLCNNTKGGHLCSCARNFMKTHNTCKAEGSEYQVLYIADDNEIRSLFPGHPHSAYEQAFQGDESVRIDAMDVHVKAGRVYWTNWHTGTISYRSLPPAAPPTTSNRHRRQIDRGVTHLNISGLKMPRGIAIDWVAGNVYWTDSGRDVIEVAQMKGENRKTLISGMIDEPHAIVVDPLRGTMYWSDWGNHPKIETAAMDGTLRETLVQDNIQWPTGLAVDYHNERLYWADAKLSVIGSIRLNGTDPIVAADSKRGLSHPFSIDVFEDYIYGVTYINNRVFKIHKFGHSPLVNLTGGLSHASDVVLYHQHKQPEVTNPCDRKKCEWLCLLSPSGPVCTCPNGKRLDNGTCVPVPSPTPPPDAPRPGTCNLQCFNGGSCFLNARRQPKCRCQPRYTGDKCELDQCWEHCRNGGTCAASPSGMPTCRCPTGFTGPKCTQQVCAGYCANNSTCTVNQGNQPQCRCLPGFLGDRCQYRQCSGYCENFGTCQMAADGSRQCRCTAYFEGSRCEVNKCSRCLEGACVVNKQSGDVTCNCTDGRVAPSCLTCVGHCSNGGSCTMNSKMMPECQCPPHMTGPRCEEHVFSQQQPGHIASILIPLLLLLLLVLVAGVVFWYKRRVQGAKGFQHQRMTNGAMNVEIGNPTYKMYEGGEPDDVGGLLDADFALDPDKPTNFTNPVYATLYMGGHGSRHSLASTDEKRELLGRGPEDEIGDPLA
UniProt P30533, residues 35-357: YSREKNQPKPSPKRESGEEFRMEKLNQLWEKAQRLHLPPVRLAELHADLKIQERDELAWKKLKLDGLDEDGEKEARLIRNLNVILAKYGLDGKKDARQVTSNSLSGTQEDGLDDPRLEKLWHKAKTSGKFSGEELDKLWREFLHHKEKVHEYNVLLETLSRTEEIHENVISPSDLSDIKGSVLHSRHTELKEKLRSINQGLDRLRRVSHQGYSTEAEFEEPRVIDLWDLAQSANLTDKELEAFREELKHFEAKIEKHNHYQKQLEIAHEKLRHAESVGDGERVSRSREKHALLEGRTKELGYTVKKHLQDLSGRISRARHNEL

## receptor-associated protein (RAP) (from UniProt P30533 35-357)
  binding: binds

Reference: paper PMC12192683
